# Results: PMC8479171
# Results are given in words; binding and its absence hold for the method and conditions named. Binding seen in cells or lysates may run through a third protein. Binding calls can cover weak binding; strength is not graded here. For part of these data: Where a sequence is shown, tags or fusion partners need not be part of it.
# T1: Gimap5 (GTPase of immunity-associated protein 5), over-expressed from pcDNA3.1-Gimap5/3×Flag-EGFP (human) (UniProt Q96F15)
# T1 sequence: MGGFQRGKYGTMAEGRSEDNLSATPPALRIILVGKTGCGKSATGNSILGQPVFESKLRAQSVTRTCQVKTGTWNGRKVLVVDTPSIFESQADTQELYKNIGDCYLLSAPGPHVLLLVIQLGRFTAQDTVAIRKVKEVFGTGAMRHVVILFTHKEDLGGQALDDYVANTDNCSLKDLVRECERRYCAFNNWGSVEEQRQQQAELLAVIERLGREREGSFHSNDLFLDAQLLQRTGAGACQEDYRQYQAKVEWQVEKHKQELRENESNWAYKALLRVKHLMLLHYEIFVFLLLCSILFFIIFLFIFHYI
# B1: Gimap5, endogenous in Beas-2b cells (protein, UniProt Q96F15 1-307)
# chain: T1 sequence
# B2: Gimap5 (GTPase of immunity-associated protein 5), over-expressed from pcDNA3.1-Gimap5/3×Flag-EGFP (protein, UniProt Q96F15 1-307)
# chain: T1 sequence
# Columns and labels:
# [1] = biological target: T1, Gimap5 (GTPase of immunity-associated protein 5), over-expressed from pcDNA3.1-Gimap5/3×Flag-EGFP (human); test: co-IP; reciprocal: IP with Gimap5 antibody blotted for M6PR, IP with M6PR antibody blotted for Gimap5; cells by the methods Beas-2b and PC9 with Gimap5 overexpression
# [2] = biological target: M6PR (mannose 6-phosphate receptor) (human (endogenous in Beas-2b and PC9)); test: co-IP; total protein of Beas-2b; IP of M6PR, western blot with anti-Gimap5 antibody
# [3] = biological target: M6PR (mannose 6-phosphate receptor) (human (endogenous in Beas-2b and PC9)); test: co-IP; reciprocal: IP with Gimap5 antibody blotted for M6PR, IP with M6PR antibody blotted for Gimap5; cells by the methods Beas-2b and PC9 with Gimap5 overexpression
molecule,measurement,setting,value
M6PR (mannose 6-phosphate receptor) (human (endogenous in Beas-2b and PC9)),binding,[1],binds
B1,binding,[2],binds
B2,binding,[3],binds
